Measurements taken from paper PMC10590398, “Hfq C-terminal region forms a β-rich amyloid-like motif without perturbing the N-terminal Sm-like structure” (Communications Biology, 2023).
No constants are given. Whether binding was seen depends on the method and setting.

Molecular target: Hfq 38-residue C-terminal region peptide (E. coli)
Experiment: ATR-FTIR; assembled Hfq CTR (0.5 µL at 20 mg/mL in D2O) added onto a dried DOPG lipid film with 5 µL D2O; spectra every 90 min overnight (12 h); both purified

B1: Hfq 38-residue C-terminal region peptide (peptide)
peptide: SRPVSHHSNNAGGGTSSNYHHGSSAQNTSAQQDSEETE
notes: Hfq (host factor 1), E. coli, C-terminal region; The lipid experiment names its sample only 'assembled Hfq CTR'; also called Hfq 38-residues; Hfq CTR; source: synthetic peptide (Proteogenix), assembled at 4 °C at 20 mg/mL for >1 month (D2O for FTIR)
  binding: no binding (condition: with DOPG lipids, over 12 h)
